Data as given in PubChem BioAssay AID1259424 (University of Nebraska Medical Center, 2018)

Aim: 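Seek colon cancer survival genes behaving like KSR1, using a six-gene signature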 (primary screen)
Cell system: human HCT116 colon cancer cells
Reagent: siRNA pool against human genes, 50 nM
Read-out: 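Six signature mRNAs by branched-DNA multiplex assay, scaled to two housekeeping genes and non-targeting median, log2; matched to mean KSR1 knockdown profile by Pearson correlation and euclidean distance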
Scale: mean correlation with KSR1 profile: higher = expression change more like KSR1 knockdown
The whole screen tested about 14,000 reagents; this is a random part of them. 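Higher correlation or smaller distance means closer resemblance to KSR1 loss; control wells, including KSR1 knockdowns, recur on many plates.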 Not all columns of the deposit are shown. Not stated in the record: the time to read-out.

Depletion of ARPC1B (actin related protein 2/3 complex subunit 1B) resulted in: mean correlation with KSR1 profile 0.581.
Silencing of HRC (histidine rich calcium binding protein) gave: mean correlation with KSR1 profile -0.687.
For IFT25 (intraflagellar transport 25), the values are mean correlation with KSR1 profile -0.39.
For HTATIP2 (HIV-1 Tat interactive protein 2), the entry reads mean correlation with KSR1 profile 0.87.
ZNF71 (zinc finger protein 71) scored mean correlation with KSR1 profile -0.593.
After knock-down of HS2ST1 (heparan sulfate 2-O-sulfotransferase 1) the results were mean correlation with KSR1 profile -0.12.
For SSTR2 (somatostatin receptor 2), the values are mean correlation with KSR1 profile 0.0817.
With knock-down of MNMIP1 (manchette microtubule inner protein 1) the results were mean correlation with KSR1 profile 0.781.
For KLHL5 (kelch like family member 5) the deposit lists mean correlation with KSR1 profile 0.0442.
ST8SIA2 (ST8 alpha-N-acetyl-neuraminide alpha-2,8-sialyltransferase 2) scored mean correlation with KSR1 profile -0.226.
With knock-down of IARS2 (isoleucyl-tRNA synthetase 2, mitochondrial), the screen gave mean correlation with KSR1 profile 0.618.
RANBP3 (RAN binding protein 3) scored mean correlation with KSR1 profile 0.22.
Silencing of CEACAM8 (CEA cell adhesion molecule 8) resulted in: mean correlation with KSR1 profile -0.0609.
With knock-down of HLA-F (major histocompatibility complex, class I, F) the results were mean correlation with KSR1 profile -0.252.
For VWF (von Willebrand factor) the deposit lists mean correlation with KSR1 profile -0.0513.
After knock-down of GAD2 (glutamate decarboxylase 2), the record shows mean correlation with KSR1 profile -0.335.
After knock-down of CHTF18 (chromosome transmission fidelity factor 18), the screen gave mean correlation with KSR1 profile -0.281.
Depletion of C22orf23 (chromosome 22 open reading frame 23) gave: mean correlation with KSR1 profile 0.535.
With knock-down of POLR1E (RNA polymerase I subunit E) the results were mean correlation with KSR1 profile -0.568.
CENPT (centromere protein T) gave mean correlation with KSR1 profile 0.336.
For ITGA2B (integrin subunit alpha 2b), the values are mean correlation with KSR1 profile -0.136.
Silencing of B3GALT2 (beta-1,3-galactosyltransferase 2) gave: mean correlation with KSR1 profile -0.0224.
With knock-down of CLEC10A (C-type lectin domain containing 10A), the screen gave mean correlation with KSR1 profile -0.407.
Knock-down of TFDP2 (transcription factor Dp-2) came out at: mean correlation with KSR1 profile 0.328.
HOXC5 (homeobox C5) showed mean correlation with KSR1 profile 0.0454.
ARFGEF3 (ARFGEF family member 3) gave mean correlation with KSR1 profile -0.119.
CXCL3 (C-X-C motif chemokine ligand 3) gave mean correlation with KSR1 profile 0.799.
With knock-down of C7 (complement C7) the results were mean correlation with KSR1 profile 0.198.

Sorted by “mean correlation with KSR1 profile” (lowest first): 2 of the entries above
ITGA2B (integrin subunit alpha 2b) | mean correlation with KSR1 profile: -0.136
CENPT (centromere protein T) | mean correlation with KSR1 profile: 0.336
